From article PMC12420274
No constants are given. Whether binding was seen depends on the method and setting. In cells and extracts the contact can be indirect. Here binding means that the protein was enriched with, or labelled near, the bait; the list need not be complete. For some assays here: A no says only that the protein was not detected with the bait.

The chains behind the UniProt entries cited, without tags or fusion partners. Where a name states a change or a piece, a line headed by the entry shows the natural chain unless it says otherwise. A line that says so, or that is headed by a name, gives the form on record, which may keep a tag or linker.
FcαRI (CD89) Gly^248 variant with the transmembrane Arg^209Leu mutation (FcRγ-pairing-disabled) (P24071, form named): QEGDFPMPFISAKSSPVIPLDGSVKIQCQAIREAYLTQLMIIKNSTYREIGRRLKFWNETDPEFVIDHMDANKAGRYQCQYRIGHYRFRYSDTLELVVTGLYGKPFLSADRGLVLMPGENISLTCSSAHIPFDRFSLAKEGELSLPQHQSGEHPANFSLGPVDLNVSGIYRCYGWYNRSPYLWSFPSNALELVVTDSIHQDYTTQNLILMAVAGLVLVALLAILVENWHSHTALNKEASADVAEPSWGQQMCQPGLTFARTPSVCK
FcαRI (CD89) Ser^248 variant with the transmembrane Arg^209Leu mutation (FcRγ-pairing-disabled) (P24071, form named): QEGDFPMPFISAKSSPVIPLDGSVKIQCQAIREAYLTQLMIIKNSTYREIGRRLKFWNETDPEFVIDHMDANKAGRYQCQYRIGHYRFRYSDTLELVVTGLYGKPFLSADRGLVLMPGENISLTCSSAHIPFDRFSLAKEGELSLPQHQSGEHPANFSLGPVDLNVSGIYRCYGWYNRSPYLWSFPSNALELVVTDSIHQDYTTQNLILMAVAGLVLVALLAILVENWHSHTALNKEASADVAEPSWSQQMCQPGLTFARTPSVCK

What was measured:
[1] = molecular target: FcαRI (CD89) Gly^248 variant with the transmembrane Arg^209Leu mutation (FcRγ-pairing-disabled) (human) (UniProt P24071); experiment: affinity purification with mass spectrometry; FcαRI captured from P388D1 transfectant lysates (0.5% NP-40, 0.5% Triton X-100 in PBS) on an A59 F(ab')2 Sepharose column after preclearing; sequential elution, SDS-PAGE, silver stain; 65-kDa band identified by MALDI-MS
[2] = molecular target: FcαRI (CD89) Ser^248 variant with the transmembrane Arg^209Leu mutation (FcRγ-pairing-disabled) (human) (UniProt P24071); experiment: as above

binding [1]: no binding
binding [2]: binds
B1: murine Sab (SH3BP5) (protein, UniProt Q9Z131 1-463)
chain: MDTALKRSRSDEPAELPPPAREVEEKEEEEERMEQGLEEEEEEVDPRIQGELEKLNQSTDDINRRETELEDARQKFRSVLVEATVKLDELAKKIGKAVEDSKPYWEARRVARQAQLEAQKATQDFQRATEVLRAAKETISLAEQRLLEDDKRQFDSAWQEMLNHATQRVMEAEQTKTRSELVHKETAARYNAAMGRMRQLEKKLKRAINKSKPYFELKAKYYVQLEQLKKTVDDLQAKLALAKGEYKAALKSLERISDEIHERRRSNAMGPRGCGVGAEGSIASVENLPVSKPEPDAISVASEAFEDDNCSNLVSEDDSETQSVSSFSSGPTSPSEMPDQFPAVARPGSLDLPSPVSLSEFGMMFPILGPRSECSGASSPECEVERGDRAEGAENKMSDKANNNRVLGSTNGGSGRSRSQSSTSLESQALETRMKQLSLQCSKGRDGIIADIKMIFIFYTFLQ
